Assay results reported in paper PMC8924752, “Functional characterization of the human Cdk10/Cyclin Q complex” (Open Biology, 2022).
No constants are given. Whether binding was seen depends on the method and setting. For some of these results: Binding seen in cells or lysates may run through a third protein. Some results given as binding are weak or reduced against the parent protein; the word gives no strength. Sequences can lack the tags named with a protein. One block for each binder: values may come before it.

Protein sequences, listed by entry. Tags and fused reporters are not part of them. Lines headed by an entry give the natural chain unless they say otherwise; changes in a name come on top.
UniProt Q15131: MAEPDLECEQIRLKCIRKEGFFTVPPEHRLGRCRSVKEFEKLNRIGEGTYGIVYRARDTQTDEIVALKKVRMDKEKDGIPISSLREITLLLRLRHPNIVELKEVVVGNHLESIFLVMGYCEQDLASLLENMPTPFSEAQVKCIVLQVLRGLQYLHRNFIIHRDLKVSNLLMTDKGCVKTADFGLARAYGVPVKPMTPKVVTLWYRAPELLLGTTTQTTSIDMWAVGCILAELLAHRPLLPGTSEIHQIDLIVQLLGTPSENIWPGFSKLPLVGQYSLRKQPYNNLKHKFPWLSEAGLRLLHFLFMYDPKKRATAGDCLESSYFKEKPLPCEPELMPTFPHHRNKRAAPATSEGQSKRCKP

Assays:
[1] = molecular target: MBP-Cdk10 (human, wild type) (human) (UniProt Q15131); experiment: pull-down; co-purification from Sf9 cells co-expressing MBP-Cdk10 (bait) and His-CycQ; 1 ml MBPTrap column; lysis/wash 50 mM Hepes pH 7.6, 300 mM NaCl, 1 mM TCEP; elution with 10 mM maltose; Coomassie SDS-PAGE
[2] = molecular target: MBP-Cdk10 (T196A) (human) (UniProt Q15131); experiment: as above
[3] = molecular target: MBP-Cdk10 (T196E) (human) (UniProt Q15131); experiment: as above
[4] = molecular target: analogue-sensitive Cdk10 (M117G) (human) (UniProt Q15131); experiment: SEC; complex co-expressed in Sf9, purified by sequential HisTrap (His-CycQ) and MBPTrap (MBP-Cdk10) columns, tags removed by TEV, then Superdex 75 pg in 20 mM Hepes, 300 mM NaCl, 1 mM TCEP, 10% glycerol; SDS-PAGE of the purified complex; both purified

- binding [1]: binds
- binding [2]: binds
- binding [3]: binds
B1: His-CycQ (human Cyclin Q) (protein, UniProt Q8N1B3 1-248)
chain: MEAPEGGGGGPAARGPEGQPAPEARVHFRVARFIMEAGVKLGMRSIPIATACTIYHKFFCETNLDAYDPYLIAMSSIYLAGKVEEQHLRTRDIINVSNRYFNPSGEPLELDSRFWELRDSIVQCELLMLRVLRFQVSFQHPHKYLLHYLVSLQNWLNRHSWQRTPVAVTAWALLRDSYHGALCLRFQAQHIAVAVLYLALQVYGVEVPAEVEAEKPWWQVFNDDLTKPIIDNIVSDLIQIYTMDTEIP

- binding [4]: binds
B2: human Cyclin Q, full length, tag removed (protein, UniProt Q8N1B3 1-248)
chain: B1 chain
